The results in this text go back to publication PMC8254043.

Protein sequences, listed by entry. Tags and fused reporters are not part of them.
UniProt Q9UQM7: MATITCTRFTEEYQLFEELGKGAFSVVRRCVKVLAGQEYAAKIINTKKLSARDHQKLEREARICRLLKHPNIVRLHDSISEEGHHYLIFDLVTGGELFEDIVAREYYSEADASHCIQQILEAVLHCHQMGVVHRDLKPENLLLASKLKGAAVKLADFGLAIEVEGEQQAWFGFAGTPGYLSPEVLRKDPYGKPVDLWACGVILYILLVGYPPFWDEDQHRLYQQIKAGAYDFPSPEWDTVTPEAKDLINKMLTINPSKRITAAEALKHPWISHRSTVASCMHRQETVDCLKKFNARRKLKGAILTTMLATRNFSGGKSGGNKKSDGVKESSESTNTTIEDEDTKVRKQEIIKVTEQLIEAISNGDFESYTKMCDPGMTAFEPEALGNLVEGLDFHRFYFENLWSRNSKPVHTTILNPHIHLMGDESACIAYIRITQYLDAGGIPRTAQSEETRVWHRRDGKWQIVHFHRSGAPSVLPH
UniProt P11798: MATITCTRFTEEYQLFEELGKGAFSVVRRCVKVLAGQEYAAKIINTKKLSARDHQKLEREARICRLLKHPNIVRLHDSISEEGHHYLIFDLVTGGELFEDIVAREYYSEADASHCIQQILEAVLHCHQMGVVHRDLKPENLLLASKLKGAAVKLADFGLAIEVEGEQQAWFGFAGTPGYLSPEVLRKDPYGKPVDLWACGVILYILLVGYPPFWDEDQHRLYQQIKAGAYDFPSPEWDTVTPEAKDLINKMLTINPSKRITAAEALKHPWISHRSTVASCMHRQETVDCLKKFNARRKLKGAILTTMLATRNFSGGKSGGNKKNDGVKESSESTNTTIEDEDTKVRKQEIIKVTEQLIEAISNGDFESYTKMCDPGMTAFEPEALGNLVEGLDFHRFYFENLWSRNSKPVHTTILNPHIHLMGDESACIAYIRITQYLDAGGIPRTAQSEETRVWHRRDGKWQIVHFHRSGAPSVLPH
UniProt P97346: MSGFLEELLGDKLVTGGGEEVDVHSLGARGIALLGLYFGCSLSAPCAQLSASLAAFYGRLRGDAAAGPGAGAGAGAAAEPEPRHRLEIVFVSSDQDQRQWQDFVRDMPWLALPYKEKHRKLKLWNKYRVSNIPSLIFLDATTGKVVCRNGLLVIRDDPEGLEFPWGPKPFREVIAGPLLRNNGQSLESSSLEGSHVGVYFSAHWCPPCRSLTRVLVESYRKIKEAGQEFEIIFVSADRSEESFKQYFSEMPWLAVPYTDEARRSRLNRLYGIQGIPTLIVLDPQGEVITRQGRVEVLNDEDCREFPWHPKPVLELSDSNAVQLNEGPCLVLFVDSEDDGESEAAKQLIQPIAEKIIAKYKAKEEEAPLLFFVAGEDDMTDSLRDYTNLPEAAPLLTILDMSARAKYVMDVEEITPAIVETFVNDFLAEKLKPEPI

In assay [1] the target is T1, Nucleoredoxin (NXN) in HEK293 cell lysate (human (endogenous in HEK293)) (UniProt Q6DKJ4).
T1 sequence: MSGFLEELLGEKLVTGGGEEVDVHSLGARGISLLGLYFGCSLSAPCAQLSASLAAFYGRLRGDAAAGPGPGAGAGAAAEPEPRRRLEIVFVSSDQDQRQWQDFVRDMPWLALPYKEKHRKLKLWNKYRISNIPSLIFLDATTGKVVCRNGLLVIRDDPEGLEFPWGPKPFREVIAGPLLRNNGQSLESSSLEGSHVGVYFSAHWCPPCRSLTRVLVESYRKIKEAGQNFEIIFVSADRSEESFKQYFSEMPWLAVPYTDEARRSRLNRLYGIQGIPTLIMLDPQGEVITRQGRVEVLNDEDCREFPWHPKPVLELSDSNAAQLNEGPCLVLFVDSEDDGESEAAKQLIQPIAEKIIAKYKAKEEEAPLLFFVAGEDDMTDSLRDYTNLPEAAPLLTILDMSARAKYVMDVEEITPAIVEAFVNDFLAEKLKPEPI
Kind of assay: co-IP; HEK293 crude lysate (RIPA buffer, 1 mg); anti-NXN or anti-Camk2a antibody with protein A/G PLUS-agarose beads overnight at 4 °C; Western blot with IR dye secondary antibodies. For orientation: In western blotting, separated proteins are transferred to a membrane and probed.

The target of assay [2] is Calcium calmodulin kinase 2a (Camk2a) in HEK293 cell lysate (human (endogenous in HEK293)) (UniProt Q9UQM7). The description is as above.
Assay [3] has as its target Calcium calmodulin kinase 2a (Camk2a), mouse, endogenous in primary cortical neurons and brain (mouse (endogenous in primary cortical neurons)) (UniProt P11798). In words: proximity ligation; Duolink In Situ PLA kit on fixed, permeabilised mouse primary cortical neuron cultures of NXN-flfl and Nestin-NXN-/- mice; primary antibodies against NXN and Camk2a.

Residue numbers refer to the chain shown, from its start. No constants are given. Whether binding was seen depends on the method and setting. In cells and extracts the contact can be indirect. Some binding calls cover weakened binding; strength is not graded here.

On to “Calcium calmodulin kinase 2a (Camk2a) in HEK293 cell lysate (from UniProt Q9UQM7 1-478)”, for which the binding entry in assay [1] was “binds”.

B1: Nucleoredoxin (NXN) in HEK293 cell lysate (protein, UniProt Q6DKJ4 1-435)
chain: T1 sequence
For the molecule B1, the binding entry in assay [2] is listed as “binds”.

B2: Nucleoredoxin (NXN), mouse, endogenous in primary cortical neurons (protein, UniProt P97346 1-435)
chain: T1 sequence with E11D, S32A, P70A, R84H, I129V, N228E, M280V, A321V, A420T
As for B2, in assay [3], the binding entry is “binds”.
